Experimental data: the supplement of paper PMC6289059
Several values for one entry are separate records, joined by “and”; a condition that tells them apart may be missing. Equal values may be shown once. The list shows a part of the results. Repeats are few or missing, and single values can be far off.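 The assay uses human stem cell-derived hepatocyte-like cells whose DGUOK gene was disrupted by CRISPR, modeling liver mtDNA depletion syndrome. ATP signals were scored within each plate, and any drug with a score of at least 3 was called a primary hit.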

The compounds below were run on DGUOK Δ14/Δ5 iPSC-derived hepatocyte-like cells (SV20) (assay: ATP level (CellTiter-Glo luminescence) Z score relative to plate distribution, under 2-DG glycolysis block; higher = more cellular ATP (rescue of mitochondrial ATP production)). Details: 5 µM; treatment time: day 15 to day 20 of differentiation (5 days); 2-deoxy-D-glucose: 20 mM for 24 h before assay.

Row | Compound | ATP level
1 | CC(C)CC(N(C)C)C1(c2ccc(Cl)cc2)CCC1 (stereo not drawn) | inactive: -0.595
2 | COC(=O)C1=CO[C@@H](C)[C@H]2CN3CC[C@]4(C(=O)Nc5ccccc54)[C@@H]3C[C@H]12 | inactive: -1.35
3 | N#C/C(=C\c1cccc(O)c1)C(=O)O [alpha-CYANO-3-HYDROXYCINNAMIC ACID] | inactive: -0.901
4 | CC(=O)O[C@@H]1C[C@@]2(C)[C@H](c3ccoc3)C[C@H]3O[C@]32[C@]2(C)C(=O)C(O)=C3C(C)(C)C(=O)C=C[C@]3(C)[C@@H]12 | inactive: 0.698
5 | O=c1[nH]c2ccccc2n1CCCN1CCC(n2c(=O)[nH]c3cc(Cl)ccc32)CC1 | inactive: 2.02
6 | COP(=S)(OC)Oc1ccc(SC)c(C)c1 | inactive: 0.12
7 | C#C[C@]1(O)CC[C@H]2[C@@H]3CCC4=CC(=O)CC[C@]4(C)[C@H]3CC[C@@]21C | active: 3.34
8 | CC(C)[N+](C)(CCC(C(N)=O)(c1ccccc1)c1ccccc1)C(C)C | inactive: -0.0678
9 | C[C@]12CC[C@H]3[C@@H](CC[C@]4(O)C[C@@H](O)CC[C@]34C=O)[C@@]1(O)CC[C@@H]2C1=CC(=O)OC1 | inactive: -14.1
10 | NC(N)=NOCC[C@H](N)C(=O)O | inactive: -0.934
11 | CC(Oc1ccc(Cl)cc1Cl)C(=O)O (stereo not drawn) | inactive: 0.861
12 | CNNC | inactive: -0.468
13 | O=C1C=CC(=O)c2c(O)cccc21 | inactive: 2.19
14 | COc1ccc2c(c1)[C@]13CCCC[C@@H]1[C@H](C2)N(C)CC3 | inactive: -5.11
15 | C[C@H]1O[C@@H](O[C@H]2[C@@H](O)C[C@H](O[C@H]3[C@@H](O)C[C@H](O[C@H]4CC[C@@]5(C)[C@H](CC[C@@H]6[C@@H]5CC[C@]5(C)[C@@H](C7=CC(=O)OC7)[C@@H](O)C[C@]65O)C4)O[C@@H]3C)O[C@@H]2C)C[C@H](O)[C@@H]1O | inactive: -5.59
16 | C=C[C@H]1CN2CC[C@H]1C[C@H]2[C@H](O)c1ccnc2ccccc12 | inactive: 0.524
17 | CC1=NCCc2c1[nH]c1cc(O)ccc21 | inactive: -1.61 and inactive: -2.32
18 | C=CC[C@]1(O)CC[C@H]2[C@@H]3CCC4=CC(=O)CCC4=C3C=C[C@@]21C | inactive: -0.109
19 | COc1cc(OC)c2c(c1)O[C@H](c1ccc(OC)c(OC)c1)[C@@H](O)C2 | inactive: 0.784
20 | OC[C@@H]1CCCN2CCCC[C@H]12 | inactive: -0.309
21 | O.O.O.O=C([O-])[C@H]([O-])[C@@H]([O-])C(=O)[O-].O=C([O-])[C@H]([O-])[C@@H]([O-])C(=O)[O-].[K+].[K+].[Sb+3].[Sb+3] | inactive: -3.29
22 | C1CCc2nnnn2CC1 | inactive: -0.731
23 | C=C[C@H]1CN2CC[C@H]1C[C@@H]2[C@@H](O)c1ccnc2ccccc12 | inactive: 0.216
24 | C=CCN=C=S | active: 3.88
25 | CC(Cc1ccc(O)cc1)NCC(O)c1cc(O)cc(O)c1 (stereo not drawn) | inactive: 0.736
26 | C[C@@H](CO)NC(=O)[C@@H]1C=C2c3cccc4[nH]cc(c34)C[C@H]2N(C)C1 | inactive: -3.76
27 | Clc1ccc(C(OCCN2CCCCC2)c2ccccc2)cc1 (stereo not drawn) | inactive: -0.74

Pulled one by one from the list above, 4 records:
Row | Compound | ATP level
5 | O=c1[nH]c2ccccc2n1CCCN1CCC(n2c(=O)[nH]c3cc(Cl)ccc32)CC1 | inactive: 2.02
1 | CC(C)CC(N(C)C)C1(c2ccc(Cl)cc2)CCC1 (stereo not drawn) | inactive: -0.595
27 | Clc1ccc(C(OCCN2CCCCC2)c2ccccc2)cc1 (stereo not drawn) | inactive: -0.74
21 | O.O.O.O=C([O-])[C@H]([O-])[C@@H]([O-])C(=O)[O-].O=C([O-])[C@H]([O-])[C@@H]([O-])C(=O)[O-].[K+].[K+].[Sb+3].[Sb+3] | inactive: -3.29

Next part.

Row | Compound | ATP level
28 | C[C@]12CC[C@H](O)C[C@H]1CC[C@@H]1[C@@H]2C[C@@H](O)[C@]2(C)[C@@H](C3=CC(=O)OC3)CC[C@]12O | inactive: 0.33
29 | NCCc1c[nH]c2ccccc12 | inactive: -0.405
30 | NC(=O)C[S+]([O-])C(c1ccccc1)c1ccccc1 (stereo not drawn) | inactive: 1.26
31 | CC[C@@H](C(=O)O)[C@@H]1O[C@@H]([C@@H](C)[C@H](O)[C@H](C)C(=O)[C@H](CC)[C@H]2O[C@]3(C=C[C@@H](O)[C@]4(CC[C@@](C)([C@H]5CC[C@](O)(CC)[C@H](C)O5)O4)O3)[C@H](C)C[C@@H]2C)[C@@H](C)C[C@@H]1C | inactive: -17.4
32 | CC(=O)OCC1=C(C(=O)O)N2C(=O)[C@@H](NC(=O)CCC[C@@H](N)C(=O)O)[C@H]2SC1 | inactive: 1.72
33 | COc1c2c(cc3c1OCO3)CC[N+](C)=C2 | inactive: 1.39
34 | Cc1cccc(C)c1NC1=NCCCS1 | inactive: -13.1
35 | C[C@]12CCC(=O)C=C1CCc1ccc(O)cc12 | inactive: -5.32
36 | O=C1CCC[C@@H]2[C@H]3CCCN4CCC[C@@H](CN12)[C@@H]34 | inactive: -2.54
37 | O=P1(NCCCl)OCCCN1CCCl (stereo not drawn) | inactive: 1.39
38 | CC(=O)Oc1ccc(Cl)c2cccnc12 | inactive: -1.66
39 | N#CN=C(N)N | inactive: -1.25
40 | C=C(C)[C@@H]1[C@H]2OC(=O)[C@@H]1[C@]1(O)C[C@H]3O[C@]34C(=O)O[C@H]2[C@]14C | inactive: -2.33
41 | CC(C)c1c(CN(C)C(C)Cc2ccccc2)n(C)n(-c2ccccc2)c1=O (stereo not drawn) | inactive: 0.344
42 | N#CCCN | inactive: -1.17
43 | Oc1ccc(Cl)cc1 | inactive: -0.0639
44 | CC1=CCC[C@@H]2C1(C)CCC(C)[C@@]2(C)CC/C(C)=C/C[n+]1cn(C)c2c(N)ncnc21 (stereo partly drawn) | inactive: 0.569
45 | O=c1[nH]c(=O)n(Cl)c(=O)n1Cl | inactive: 2.89
46 | COS(C)(=O)=O | inactive: -0.861
47 | CC(=O)OC1CCC23C(=O)OC45CCC(C6=CC(=O)OC6)C4(C)CCC2C5CCC3(O)C1 (stereo not drawn) | inactive: -11.6
48 | NC(=O)CN1CCCC1=O | inactive: 2.08
49 | COC(=O)C(c1ccccc1)C1CCCCN1 (stereo not drawn) | inactive: 2.97
50 | COC[C@]12CN(C=O)[C@@H]3[C@@H]4[C@H](OC)[C@H]1[C@@]3([C@@H](OC)C[C@H]2O)[C@@H]1C[C@@]2(O)[C@H](OC(=O)c3ccccc3)[C@@H]1[C@]4(OC(C)=O)[C@@H](O)[C@@H]2OC | inactive: 1.29
51 | CC(C)=CCCC1(C)C=Cc2c(O)c3c(c(CC=C(C)C)c2O1)OC12C(=CC4CC1C(C)(C)OC2(C/C=C(/C)C(=O)O)C4O)C3=O (stereo not drawn) | inactive: 1.28
52 | C[C@H]1C(=O)O[C@@H]2CCN3CC=C(COC(=O)[C@](C)(O)[C@]1(C)O)[C@H]23 | inactive: 1.28
53 | CO[C@]12C[C@@H](COC(=O)c3cncc(Br)c3)CN(C)[C@@H]1Cc1cn(C)c3cccc2c13 | inactive: 0.245
